From patent publication US7737158B2, “Processes for regulating blood glucose in a mammal” (Washington University, priority 2005, dated 2010)
The name of at least one read-out is uncertain.

B1: Nmnat: Bacterially produced, His-tagged recombinant mouse nicotinamide/nicotinic acid mononucleotide adenylyltransferase (protein, UniProt Q9EPA7 1-285, looked up)
Nicotinamide/nicotinic acid …: MDSSKKTEVVLLACGSFNPITNMHLRLFELAKDYMHATGKYSVIKGIISPVGDAYKKKGLIPAHHRIIMAELATKNSHWVEVDTWESLQKEWVETVKVLRYHQEKLATGSCSYPQSSPALEKPGRKRKWADQKQDSSPQKPQEPKPTGVPKVKLLCGADLLESFSVPNLWKMEDITQIVANFGLICITRAGSDAQKFIYESDVLWRHQSNIHLVNEWITNDISSTKIRRALRRGQSIRYLVPDLVQEYIEKHELYNTESEGRNAGVTLAPLQRNAAEAKHNHSTL
modifications: His tag
notes: Bacterially produced, His-tagged recombinant mouse nicotinamide/nicotinic acid mononucleotide adenylyltransferase
B2: Nampt: Bacterially produced, His-tagged recombinant mouse nicotinamide phosphoribosyltransferase (protein)
chain: MNAAAEAEFNILLATDSYKVTHYKQYPPNTSKVYSYFECREKKTENSKVRKVKYEETVFYGLQYILNKYLKGKVVTKEKIQEAKEVYREHFQDDVFNERGWNYILEKYDGHLPIEVKAVPEGSVIPRGNVLFTVENTDPECYWLTNWIETILVQSWYPITVATNSREQKKILAKYLLETSGNLDGLEYKLHDFGYRGVSSQETAGIGASAHLVNFKGTDTVAGIALIKKYYGTKDPVPGYSVPAAEHSTITAWGKDHEKDAFEHIVTQFSSVPVSVVSDSYDIYNACEKIWGEDLRHLIVSRSTEAPLIIRPDSGNPLDTVLKVLDILGKKFPVTENSKGYKLLPPYLRVIQGDGVDINTLQEIVEGMKQKKWSIENVSFGSGGALLQKLTRDLLNCSFKCSYVVTNGLGVNVFKDPVADPNKRSKKGRLSLHRTPAGNFVTLEEGKGDLEEYGHDLLHTVFKNGKVTKSYSFDEVRKNAQLNIEQDVAPH

Columns and labels:
[1] = biological target: T1, mouse Nmnat (Mus musculus, UniProt Q9EPA7); test: Enzyme-coupled fluorometric assay, kinetic characterization of recombinant Nmnat; type: biochemical; settings: purified His-tagged recombinant mouse Nmnat; substrate NMN
T1 construct: Polyclonal rabbit antisera were produced against the purified full-length His-tagged Nampt and Nmnat recombinant proteins; made in house; host or cells: E. coli BL21(DE3)pLysS
Protocol: (§1) Enzymatic activities of recombinant Nampt and Nmnat proteins were measured by an enzyme-coupled fluorometric assay (see, e.g., FIG. 4B). In this enzyme-coupled reaction, NAD is converted to NADH by alcohol dehydrogenase, and the fluorescence of NADH is detected in a fluorometer. To establish this assay system, optimal reaction conditions for Nmnat were initially examined by varying ATP and Mg^2+ concentrations and pH of the reaction buffer. The resultant reaction buffer for Nmnat contained 50 mM HEPES [pH 7.4], 0.02% BSA, 12 mM MgCl2, 2 mM ATP, 1.5% ethanol, and 30 μg/ml alcohol dehydrogenase to convert NAD to NADH. To determine the kinetic parameters for Nmnat, 30 ng of purified His-tagged Nmnat and varying concentrations of NMN were added to 1 ml of the reaction buffer. The reactions were run at 37° C. and quenched at six time points by the addition of 250 μl of 0.5 M EDTA. The production of NADH was measured by excitation at 340 nm and emission at 460 nm in a fluorometer. […] NADH production was measured continuously in a fluorometer.
(§2) By using this enzyme-coupled fluorometric assay, kinetic parameters of purified recombinant mouse Nampt and Nmnat for nicotinamide and NMN, respectively, were determined (see, e.g., Table 1). […]

[2] = biological target: mouse Nampt (Mus musculus, UniProt Q99KQ4); test: Enzyme-coupled fluorometric assay, kinetic characterization of recombinant Nampt; type: biochemical; set-up: expressed in transfected cells; cell extracts or culture supernatant, anti-FLAG immunoprecipitates; settings: purified His-tagged recombinant mouse Nampt; substrate nicotinamide
Protocol: as §1, §2

Molecule	catalytic efficiency (kcat/Km) [1] [M⁻¹ s⁻¹]	catalytic efficiency (kcat/Km) [2] [M⁻¹ s⁻¹]
B1	995000	
B2		21700
